Data as given in the supplement of paper PMC8728848.
This is one part of the list.

Experiments:
Assay in all cases: glycan array binding signal (z-score within array); higher = stronger binding
Conditions in all cases: glycan notation: IUPAC condensed, linker removed
Fuc(a1-3)GlcNAc = target: Fuc(a1-3)GlcNAc
Procedure, shortened: (§1)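 Glycan array data were curated from 3228 arrays in the Consortium for Functional Glycomics database and kept only where the protein sequence was available. Glycan names were converted to IUPAC-condensed notation, and columns mapping to the same glycan were averaged. The binding signal is a within-array Z-score, averaged across arrays of the same protein sequence at different concentrations or buffers and across linkers. Negative Z-scores can be read as non-binding.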

[1] = target: Fuc(a1-3)[Gal(b1-4)]Glc6S
Procedure, shortened: as §1

[2] = target: Fuc(a1-3)[Gal(b1-4)]GlcNAc
Procedure, shortened: as §1

[3] = target: Fuc(a1-3)[Gal(b1-4)]GlcNAc(b1-2)Man
Procedure, shortened: as §1

[4] = target: Fuc(a1-3)[Gal(b1-4)]GlcNAc(b1-2)Man(a1-3)[Fuc(a1-3)[Gal(b1-4)]GlcNAc(b1-2)Man(a1-6)]Man(b1-4)GlcNAc(b1-4)GlcNAc
Procedure, shortened: as §1

[5] = target: Fuc(a1-3)[Gal(b1-4)]GlcNAc(b1-2)Man(a1-3)[Fuc(a1-3)[Gal(b1-4)]GlcNAc(b1-2)Man(a1-6)]Man(b1-4)GlcNAc(b1-4)[Fuc(a1-6)]GlcNAc
Procedure, shortened: as §1

[6] = target: Fuc(a1-3)[Gal(b1-4)]GlcNAc(b1-3)Gal(b1-3)[Fuc(a1-4)]GlcNAc
Procedure, shortened: as §1

[7] = target: Fuc(a1-3)[Gal(b1-4)]GlcNAc(b1-3)Gal(b1-4)[Fuc(a1-3)]GlcNAc
Procedure, shortened: as §1

[8] = target: Fuc(a1-3)[Gal(b1-4)]GlcNAc(b1-3)Gal(b1-4)[Fuc(a1-3)]GlcNAc(b1-3)Gal(b1-4)[Fuc(a1-3)]GlcNAc
Procedure, shortened: as §1

[9] = target: Fuc(a1-3)[Gal(b1-4)]GlcNAc(b1-3)GalNAc
Procedure, shortened: as §1

[10] = target: Fuc(a1-3)[Gal(b1-4)]GlcNAc(b1-6)GalNAc
Procedure, shortened: as §1

[11] = target: Fuc(a1-3)[Gal(b1-4)]GlcNAc(b1-6)[Gal(b1-3)GlcNAc(b1-3)]Gal(b1-4)Glc
Procedure, shortened: as §1

[12] = target: Fuc(a1-3)[Gal(b1-4)]GlcNAc6S
Procedure, shortened: as §1

[13] = target: Fuc(a1-3)[Gal3S(b1-4)]Glc
Procedure, shortened: as §1

[14] = target: Fuc(a1-3)[Gal3S(b1-4)]GlcNAc
Procedure, shortened: as §1

[15] = target: Fuc(a1-3)[Gal3S(b1-4)]GlcNAc6S
Procedure, shortened: as §1

[16] = target: Fuc(a1-3)[GalNAc(b1-4)]GlcNAc
Procedure, shortened: as §1

[17] = target: Fuc(a1-3)[GalNAc(b1-4)]GlcNAc6S
Procedure, shortened: as §1

Fuc(a1-4)GlcNAc = target: Fuc(a1-4)GlcNAc
Procedure, shortened: as §1

Fuc(b1-3)GlcNAc = target: Fuc(b1-3)GlcNAc
Procedure, shortened: as §1

Gal(a1-2)Gal = target: Gal(a1-2)Gal
Procedure, shortened: as §1

Gal(a1-3)Gal = target: Gal(a1-3)Gal
Procedure, shortened: as §1

Gal(a1-3)Gal(b1-3)GlcNAc = target: Gal(a1-3)Gal(b1-3)GlcNAc
Procedure, shortened: as §1

[18] = target: Gal(a1-3)Gal(b1-3)GlcNAc(b1-2)Man
Procedure, shortened: as §1

[19] = target: Gal(a1-3)Gal(b1-3)GlcNAc(b1-2)Man(a1-3)[Gal(a1-3)Gal(b1-3)GlcNAc(b1-2)Man(a1-6)]Man(b1-4)GlcNAc(b1-4)GlcNAc
Procedure, shortened: as §1

[20] = target: Gal(a1-3)Gal(b1-3)GlcNAc(b1-3)GalNAc
Procedure, shortened: as §1

[21] = target: Gal(a1-3)Gal(b1-3)GlcNAc(b1-6)GalNAc
Procedure, shortened: as §1

[22] = target: Gal(a1-3)Gal(b1-3)[Fuc(a1-4)]GlcNAc(b1-2)Man(a1-3)[Gal(a1-3)Gal(b1-3)[Fuc(a1-4)]GlcNAc(b1-2)Man(a1-6)]Man(b1-4)GlcNAc(b1-4)GlcNAc
Procedure, shortened: as §1

Gal(a1-3)Gal(b1-4)Glc = target: Gal(a1-3)Gal(b1-4)Glc
Procedure, shortened: as §1

Gal(a1-3)Gal(b1-4)GlcNAc = target: Gal(a1-3)Gal(b1-4)GlcNAc
Procedure, shortened: as §1

[23] = target: Gal(a1-3)Gal(b1-4)GlcNAc(b1-2)Man
Procedure, shortened: as §1

[24] = target: Gal(a1-3)Gal(b1-4)GlcNAc(b1-2)Man(a1-3)[Gal(a1-3)Gal(b1-4)GlcNAc(b1-2)Man(a1-6)]Man(b1-4)GlcNAc(b1-4)GlcNAc
Procedure, shortened: as §1

[25] = target: Gal(a1-3)Gal(b1-4)GlcNAc(b1-3)GalNAc
Procedure, shortened: as §1

[26] = target: Gal(a1-3)Gal(b1-4)GlcNAc(b1-6)GalNAc
Procedure, shortened: as §1

[27] = target: Gal(a1-3)Gal(b1-4)[Fuc(a1-3)]GlcNAc
Procedure, shortened: as §1

[28] = target: Gal(a1-3)Gal(b1-4)[Fuc(a1-3)]GlcNAc(b1-2)Man(a1-3)[Gal(a1-3)Gal(b1-4)[Fuc(a1-3)]GlcNAc(b1-2)Man(a1-6)]Man(b1-4)GlcNAc(b1-4)GlcNAc
Procedure, shortened: as §1

Gal(a1-3)GalNAc = target: Gal(a1-3)GalNAc
Procedure, shortened: as §1

[29] = target: Gal(a1-3)[Gal(a1-4)]Gal(b1-4)GlcNAc
Procedure, shortened: as §1

[30] = target: Gal(a1-4)Gal(b1-3)GlcNAc(b1-2)Man(a1-3)[Gal(a1-4)Gal(b1-3)GlcNAc(b1-2)Man(a1-6)]Man(b1-4)GlcNAc(b1-4)GlcNAc
Procedure, shortened: as §1

Gal(a1-4)Gal(b1-4)Glc = target: Gal(a1-4)Gal(b1-4)Glc
Procedure, shortened: as §1

Gal(a1-4)Gal(b1-4)GlcNAc = target: Gal(a1-4)Gal(b1-4)GlcNAc
Procedure, shortened: as §1

[31] = target: Gal(a1-4)Gal(b1-4)GlcNAc(b1-2)Man(a1-3)[Gal(a1-4)Gal(b1-4)GlcNAc(b1-2)Man(a1-6)]Man(b1-4)GlcNAc(b1-4)GlcNAc
Procedure, shortened: as §1

[32] = target: Gal(a1-4)Gal(b1-4)GlcNAc(b1-3)Gal(b1-4)Glc
Procedure, shortened: as §1

Gal(a1-4)GlcNAc = target: Gal(a1-4)GlcNAc
Procedure, shortened: as §1

Gal(a1-6)Glc = target: Gal(a1-6)Glc
Procedure, shortened: as §1

B1: EUL D1A second (Oryza sativa) (protein)
chain: GAATACTIGGVPVHTVRVFSAAGEDYCLTVRNGTACLAPKNPRDDYQHWIKDMRHSNKIRDEEGYPAFALVNKVTGEAIKHSTGQGHPVKLVPYNPEYQDESVLWTESKDVGKGFRCIRMVNNIYLNFDAFHGDKDHGGIHDGTEIVLWKWCEGDNQRWKILPWILEQKLISEEDLNSAVDHHHHHH
- glycan array binding signal (z-score) (Fuc(a1-3)GlcNAc): -0.469
- glycan array binding signal (z-score) [1]: -0.136
- glycan array binding signal (z-score) [2]: -0.772
- glycan array binding signal (z-score) [3]: 0.112
- glycan array binding signal (z-score) [4]: -0.382
- glycan array binding signal (z-score) [5]: 2.4
- glycan array binding signal (z-score) [6]: -0.819
- glycan array binding signal (z-score) [7]: -0.106
- glycan array binding signal (z-score) [8]: -0.846
- glycan array binding signal (z-score) [9]: 0.566
- glycan array binding signal (z-score) [10]: -0.945
- glycan array binding signal (z-score) [11]: -0.669
- glycan array binding signal (z-score) [12]: -0.105
- glycan array binding signal (z-score) [13]: -1.53
- glycan array binding signal (z-score) [14]: 0.625
- glycan array binding signal (z-score) [15]: -1.36
- glycan array binding signal (z-score) [16]: -0.036
- glycan array binding signal (z-score) [17]: -0.662
- glycan array binding signal (z-score) (Fuc(a1-4)GlcNAc): -0.27
- glycan array binding signal (z-score) (Fuc(b1-3)GlcNAc): -0.085
- glycan array binding signal (z-score) (Gal(a1-2)Gal): -1.3
- glycan array binding signal (z-score) (Gal(a1-3)Gal): -0.873
- glycan array binding signal (z-score) (Gal(a1-3)Gal(b1-3)GlcNAc): -0.139
- glycan array binding signal (z-score) [18]: 0.338
- glycan array binding signal (z-score) [19]: 1.69
- glycan array binding signal (z-score) [20]: -1.62
- glycan array binding signal (z-score) [21]: -0.169
- glycan array binding signal (z-score) [22]: 0.542
- glycan array binding signal (z-score) (Gal(a1-3)Gal(b1-4)Glc): -0.063
- glycan array binding signal (z-score) (Gal(a1-3)Gal(b1-4)GlcNAc): -1.66
- glycan array binding signal (z-score) [23]: -0.016
- glycan array binding signal (z-score) [24]: 0.201
- glycan array binding signal (z-score) [25]: -0.802
- glycan array binding signal (z-score) [26]: -0.557
- glycan array binding signal (z-score) [27]: -0.74
- glycan array binding signal (z-score) [28]: 0.897
- glycan array binding signal (z-score) (Gal(a1-3)GalNAc): -1.42
- glycan array binding signal (z-score) [29]: 0.807
- glycan array binding signal (z-score) [30]: -0.584
- glycan array binding signal (z-score) (Gal(a1-4)Gal(b1-4)Glc): -1.31
- glycan array binding signal (z-score) (Gal(a1-4)Gal(b1-4)GlcNAc): 0.105
- glycan array binding signal (z-score) [31]: -0.008
- glycan array binding signal (z-score) [32]: -1.1
- glycan array binding signal (z-score) (Gal(a1-4)GlcNAc): -1.01
- glycan array binding signal (z-score) (Gal(a1-6)Glc): -0.631
